PubChem BioAssay AID1671195, Yale University | 2021
Shown is one part, drawn at random, of about 22,000 reagents. About 1,510 of all reagents (6.9%) count as active. 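Active includes knockdowns raising or lowering LDL uptake; positive z-scores mean more uptake, negative mean less.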 Unmarked entries are inactive.

- Assay: 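Regulators of LDL receptor activity judged by labelled LDL uptake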 (primary screen)
- Cell system: human Huh7 hepatoma cells
- Reagents: siRNA pool against human genes, 18 nM
- Timing: about 2 to 2.5 days of knockdown, then 8 h LDL uptake
- Conditions: DiI-labelled LDL at 30 µg/ml for 8 h, in lipoprotein-deficient serum medium
- Measured: 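Fluorescent LDL signal imaged in cells, scaled to the plate median, robust z-score for each replicate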
- Reading the numbers: robust z-score: higher = more LDL uptake after knockdown
- Rule for the call: 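a gene counts as active if at least two replicate z-scores exceed ±2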

Which result is listed for PLEKHG4 (pleckstrin homology and RhoGEF domain containing G4)?
robust z-score, replicate 1: 0.971; robust z-score, replicate 2: 1.38; robust z-score, replicate 3: 0.927

Which result is listed for ABHD8 (abhydrolase domain containing 8)?
robust z-score, replicate 1: 0.888; robust z-score, replicate 2: 0.291; robust z-score, replicate 3: 0.828

What did the screen give for RHAG (Rh associated glycoprotein)?
robust z-score, replicate 1: 0.53; robust z-score, replicate 2: -0.0214; robust z-score, replicate 3: 0.243

What did the screen give for PLXDC2 (plexin domain containing 2)?
robust z-score, replicate 1: -0.839; robust z-score, replicate 2: -0.149; robust z-score, replicate 3: -0.161

With FTSJ1 (FtsJ RNA 2'-O-methyltransferase 1), how do the results read?
robust z-score, replicate 1: -2.99 (active); robust z-score, replicate 2: -3.11; robust z-score, replicate 3: -3.17

Which result is listed for IRF6 (interferon regulatory factor 6)?
robust z-score, replicate 1: 0.3; robust z-score, replicate 2: 0.345; robust z-score, replicate 3: 0.464

What did the screen give for OR51I1 (olfactory receptor family 51 subfamily I member 1)?
robust z-score, replicate 1: 1.59; robust z-score, replicate 2: 2.49; robust z-score, replicate 3: 1.6

Which result is listed for ARHGEF34P (Rho guanine nucleotide exchange factor 34, pseudogene)?
robust z-score, replicate 1: 1.23; robust z-score, replicate 2: -0.0198; robust z-score, replicate 3: 0.489

What is on record for SLC39A6?
robust z-score, replicate 1: -1.23; robust z-score, replicate 2: -0.255; robust z-score, replicate 3: -0.812

With PHOX2B (paired like homeobox 2B), how do the results read?
robust z-score, replicate 1: 0.954; robust z-score, replicate 2: 1.97; robust z-score, replicate 3: 1.59

What is on record for POU2F2 (POU class 2 homeobox 2)?
robust z-score, replicate 1: -0.246; robust z-score, replicate 2: -0.534; robust z-score, replicate 3: 0.138

How did the screen score DEAF1 (DEAF1 transcription factor)?
robust z-score, replicate 1: 0.562; robust z-score, replicate 2: -0.651; robust z-score, replicate 3: 0.468

What is on record for GPT (glutamic--pyruvic transaminase)?
robust z-score, replicate 1: 1.15; robust z-score, replicate 2: 2.6; robust z-score, replicate 3: 1.52

For CACNA2D3, what was measured?
robust z-score, replicate 1: -0.793; robust z-score, replicate 2: -0.991; robust z-score, replicate 3: -0.853

With H2BW2 (H2B.W histone 2), what was measured?
robust z-score, replicate 1: -1.45; robust z-score, replicate 2: -1.36; robust z-score, replicate 3: -1.24

How did the screen score GOLGA7B (golgin A7 family member B)?
robust z-score, replicate 1: -0.629; robust z-score, replicate 2: -0.65; robust z-score, replicate 3: -0.698

For LOC138729 (retired record), how do the results read?
robust z-score, replicate 1: -1.94; robust z-score, replicate 2: -2; robust z-score, replicate 3: -1.93

How did the screen score OPN3 (opsin 3)?
robust z-score, replicate 1: -0.039; robust z-score, replicate 2: -0.109; robust z-score, replicate 3: -0.249

With ZNF385D (zinc finger protein 385D), how do the results read?
robust z-score, replicate 1: 0.847; robust z-score, replicate 2: 0.449; robust z-score, replicate 3: -0.294

What is on record for LINC00997 (long independently transcribed non-coding RNA 997)?
robust z-score, replicate 1: 0.0907; robust z-score, replicate 2: 0.476; robust z-score, replicate 3: 0.133

Which result is listed for ECRG4 (ECRG4 augurin precursor)?
robust z-score, replicate 1: 0.659; robust z-score, replicate 2: 0.793; robust z-score, replicate 3: -0.172

What did the screen give for KCTD14 (potassium channel tetramerization domain containing 14)?
robust z-score, replicate 1: -0.918; robust z-score, replicate 2: -0.868; robust z-score, replicate 3: -0.987

With VXN (vexin), what does the deposit list?
robust z-score, replicate 1: 0.128; robust z-score, replicate 2: -0.0171; robust z-score, replicate 3: 0.0692

Which result is listed for DMAP1 (DNA methyltransferase 1 associated protein 1)?
robust z-score, replicate 1: -0.0887; robust z-score, replicate 2: 0.305; robust z-score, replicate 3: 0.268

Records above called active:
FTSJ1 (FtsJ RNA 2'-O-methyltransferase 1) → robust z-score, replicate 1: -2.99 (active); robust z-score, replicate 2: -3.11; robust z-score, replicate 3: -3.17
